Experimental data reported in PMC8995424.
Changes are numbered by the printed parent chain. No constants are given. Whether binding was seen depends on the method and setting. In cells and extracts the contact can be indirect. Some entries that bind do so weakly or less than the wild type. Where a sequence is shown, tags or fusion partners need not be part of it. Values belong to the substance of their own block, whether it stands above or below them.

Protein sequences, listed by entry. Tags and fused reporters are not part of them. Residues count along the entry.
UniProt P19490, residues 19-907: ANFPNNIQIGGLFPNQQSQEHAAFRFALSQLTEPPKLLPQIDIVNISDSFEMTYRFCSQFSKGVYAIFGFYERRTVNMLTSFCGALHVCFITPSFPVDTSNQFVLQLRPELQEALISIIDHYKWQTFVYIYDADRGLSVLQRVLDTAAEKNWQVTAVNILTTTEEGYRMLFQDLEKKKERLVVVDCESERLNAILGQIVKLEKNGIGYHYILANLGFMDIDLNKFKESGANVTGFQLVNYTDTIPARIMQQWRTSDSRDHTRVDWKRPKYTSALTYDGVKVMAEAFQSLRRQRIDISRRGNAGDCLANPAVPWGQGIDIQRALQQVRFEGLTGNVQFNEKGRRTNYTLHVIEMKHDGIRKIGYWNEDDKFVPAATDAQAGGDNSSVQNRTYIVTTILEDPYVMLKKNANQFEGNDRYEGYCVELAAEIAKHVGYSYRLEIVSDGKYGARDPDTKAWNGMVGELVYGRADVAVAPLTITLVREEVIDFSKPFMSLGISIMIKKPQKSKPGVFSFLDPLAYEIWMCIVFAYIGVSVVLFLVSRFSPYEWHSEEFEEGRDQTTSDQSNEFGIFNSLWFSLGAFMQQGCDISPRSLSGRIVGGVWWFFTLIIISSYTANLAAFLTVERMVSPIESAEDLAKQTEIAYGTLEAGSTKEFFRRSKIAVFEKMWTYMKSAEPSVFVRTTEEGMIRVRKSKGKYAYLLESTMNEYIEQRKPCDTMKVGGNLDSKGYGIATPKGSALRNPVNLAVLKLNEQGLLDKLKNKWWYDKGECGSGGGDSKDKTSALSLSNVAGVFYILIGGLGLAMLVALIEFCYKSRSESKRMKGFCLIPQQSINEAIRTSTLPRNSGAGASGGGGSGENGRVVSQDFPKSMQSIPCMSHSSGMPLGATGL
UniProt P19491, residues 22-883: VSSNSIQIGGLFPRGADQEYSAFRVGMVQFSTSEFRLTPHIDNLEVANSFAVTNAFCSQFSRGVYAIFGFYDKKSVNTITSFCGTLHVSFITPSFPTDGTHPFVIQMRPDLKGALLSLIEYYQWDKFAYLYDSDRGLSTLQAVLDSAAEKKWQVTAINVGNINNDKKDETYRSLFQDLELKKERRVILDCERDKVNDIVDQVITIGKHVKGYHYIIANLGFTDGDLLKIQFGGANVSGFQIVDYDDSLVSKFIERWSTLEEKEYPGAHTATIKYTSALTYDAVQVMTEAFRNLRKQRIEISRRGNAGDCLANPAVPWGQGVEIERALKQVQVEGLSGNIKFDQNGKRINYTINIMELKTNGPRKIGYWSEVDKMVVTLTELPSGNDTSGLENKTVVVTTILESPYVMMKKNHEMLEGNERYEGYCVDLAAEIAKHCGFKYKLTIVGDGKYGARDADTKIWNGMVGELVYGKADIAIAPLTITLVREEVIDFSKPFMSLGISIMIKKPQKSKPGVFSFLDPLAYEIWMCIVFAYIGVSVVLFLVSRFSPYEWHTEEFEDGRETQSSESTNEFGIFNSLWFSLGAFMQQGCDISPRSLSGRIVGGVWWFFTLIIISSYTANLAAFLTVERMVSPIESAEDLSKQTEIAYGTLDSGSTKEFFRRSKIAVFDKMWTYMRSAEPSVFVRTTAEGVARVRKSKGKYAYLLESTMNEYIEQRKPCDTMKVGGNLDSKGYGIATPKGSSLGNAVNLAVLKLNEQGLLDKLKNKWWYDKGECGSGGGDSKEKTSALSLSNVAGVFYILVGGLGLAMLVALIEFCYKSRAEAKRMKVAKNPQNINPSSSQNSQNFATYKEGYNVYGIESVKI
UniProt P19492, residues 23-888: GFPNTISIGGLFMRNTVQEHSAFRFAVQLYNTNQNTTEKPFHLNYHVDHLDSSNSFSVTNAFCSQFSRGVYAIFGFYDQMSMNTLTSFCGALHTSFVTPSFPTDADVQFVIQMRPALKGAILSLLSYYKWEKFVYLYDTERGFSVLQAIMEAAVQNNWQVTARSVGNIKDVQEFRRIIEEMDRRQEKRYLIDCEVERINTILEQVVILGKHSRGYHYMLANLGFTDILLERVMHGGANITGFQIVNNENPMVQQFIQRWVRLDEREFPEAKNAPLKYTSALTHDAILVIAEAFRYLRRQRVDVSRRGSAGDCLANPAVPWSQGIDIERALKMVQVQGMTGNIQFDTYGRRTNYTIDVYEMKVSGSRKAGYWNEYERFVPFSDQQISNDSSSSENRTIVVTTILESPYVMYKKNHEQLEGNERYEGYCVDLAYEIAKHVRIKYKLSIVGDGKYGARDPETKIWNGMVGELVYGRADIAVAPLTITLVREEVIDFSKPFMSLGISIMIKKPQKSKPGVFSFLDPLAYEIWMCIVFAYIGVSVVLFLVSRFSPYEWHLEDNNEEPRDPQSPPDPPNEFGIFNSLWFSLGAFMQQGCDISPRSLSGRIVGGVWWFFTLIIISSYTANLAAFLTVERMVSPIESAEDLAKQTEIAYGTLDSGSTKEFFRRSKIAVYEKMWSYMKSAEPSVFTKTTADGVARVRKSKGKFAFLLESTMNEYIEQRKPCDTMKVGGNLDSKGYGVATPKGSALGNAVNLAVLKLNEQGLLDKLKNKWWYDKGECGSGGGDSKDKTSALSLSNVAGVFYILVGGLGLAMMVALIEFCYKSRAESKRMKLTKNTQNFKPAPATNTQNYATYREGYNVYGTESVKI
UniProt P19493, residues 21-902: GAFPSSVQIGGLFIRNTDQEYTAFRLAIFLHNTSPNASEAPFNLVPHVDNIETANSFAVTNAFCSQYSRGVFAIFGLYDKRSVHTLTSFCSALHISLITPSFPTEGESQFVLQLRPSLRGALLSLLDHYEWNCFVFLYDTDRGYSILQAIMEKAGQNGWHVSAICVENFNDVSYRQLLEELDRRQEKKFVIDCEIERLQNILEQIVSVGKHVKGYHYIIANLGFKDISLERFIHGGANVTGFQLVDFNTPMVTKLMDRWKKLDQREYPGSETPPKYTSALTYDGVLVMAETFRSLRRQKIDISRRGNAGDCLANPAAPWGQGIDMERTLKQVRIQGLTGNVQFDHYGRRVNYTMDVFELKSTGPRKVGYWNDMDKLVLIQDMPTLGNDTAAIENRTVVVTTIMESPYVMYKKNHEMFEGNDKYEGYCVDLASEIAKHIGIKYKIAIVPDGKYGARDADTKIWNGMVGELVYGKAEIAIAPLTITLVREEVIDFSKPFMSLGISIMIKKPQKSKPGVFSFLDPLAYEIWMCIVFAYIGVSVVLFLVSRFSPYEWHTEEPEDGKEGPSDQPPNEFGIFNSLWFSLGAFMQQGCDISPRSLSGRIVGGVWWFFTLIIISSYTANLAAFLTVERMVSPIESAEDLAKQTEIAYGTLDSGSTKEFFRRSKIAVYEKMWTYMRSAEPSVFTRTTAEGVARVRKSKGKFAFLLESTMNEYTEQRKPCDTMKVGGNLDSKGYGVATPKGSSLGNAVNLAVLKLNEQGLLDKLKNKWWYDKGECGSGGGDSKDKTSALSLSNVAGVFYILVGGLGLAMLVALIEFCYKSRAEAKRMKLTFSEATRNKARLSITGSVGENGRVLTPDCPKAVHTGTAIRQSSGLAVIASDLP

Tests used:
GST-Spastin WT (rat) = molecular target: T1, GST-Spastin WT (rat) (UniProt B2RYN7); assay: pull-down; 5 ug GST-fusion protein (bait) incubated with about 400 ug brain protein from 1-month-old SD rats, gentle rotation, 4°C overnight; bound proteins eluted and analysed by western blotting; only the target purified
T1 sequence: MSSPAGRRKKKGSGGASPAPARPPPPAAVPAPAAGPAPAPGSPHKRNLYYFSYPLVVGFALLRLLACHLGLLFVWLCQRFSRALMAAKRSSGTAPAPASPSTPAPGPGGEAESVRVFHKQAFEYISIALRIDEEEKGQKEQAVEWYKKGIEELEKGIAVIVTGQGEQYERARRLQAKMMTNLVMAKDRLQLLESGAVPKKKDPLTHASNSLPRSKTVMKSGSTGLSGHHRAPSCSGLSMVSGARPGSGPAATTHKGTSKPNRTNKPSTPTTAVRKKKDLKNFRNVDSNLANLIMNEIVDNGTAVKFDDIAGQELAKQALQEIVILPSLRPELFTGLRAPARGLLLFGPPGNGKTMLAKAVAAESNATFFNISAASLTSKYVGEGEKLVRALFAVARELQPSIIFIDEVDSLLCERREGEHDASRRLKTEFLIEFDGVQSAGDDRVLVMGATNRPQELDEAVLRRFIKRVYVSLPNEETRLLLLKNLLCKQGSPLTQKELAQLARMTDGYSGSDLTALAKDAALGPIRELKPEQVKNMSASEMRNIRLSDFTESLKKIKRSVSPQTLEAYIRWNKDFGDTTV

GST-Spastin QmD (rat) = molecular target: T2, GST-Spastin QmD (rat) (UniProt B2RYN7); assay: as above
T2 sequence: T1 sequence with S210D, S233D, T271D, S562D

GFP-Spastin R464C (rat) = molecular target: T3, GFP-Spastin R464C (rat) (UniProt B2RYN7); assay: co-IP; HEK293T cells co-transfected with Flag-GluA2 and GFP-Spastin or its mutants, 48 h; lysis in 25 mM Tris-Cl pH 7.4, 100 mM NaCl, 1 mM EDTA, 0.5% NP40; anti-GFP agarose beads, 4°C, 3 h; blots with anti-Flag and anti-GFP
T3 sequence: T1 sequence with R464C

GFP-Spastin WT (rat) = molecular target: T4, GFP-Spastin WT (rat) (UniProt B2RYN7); assay: as above
T4 sequence: T1 sequence

GFP-Spastin QmD (rat) = molecular target: T5, GFP-Spastin QmD (rat) (UniProt B2RYN7); assay: as above
T5 sequence: T1 sequence with S210D, S233D, T271D, S562D

GFP-Spastin K353A (rat) = molecular target: T6, GFP-Spastin K353A (rat) (UniProt B2RYN7); assay: as above
T6 sequence: T1 sequence with K353A

Substance: AMPA receptor subunit GluA1 (from UniProt P19490 19-907)
binding (GST-Spastin WT (rat)): binds

Substance: AMPA receptor subunit GluA2 (from UniProt P19491 22-883)
binding (GST-Spastin QmD (rat)): binds
binding (GST-Spastin WT (rat)): binds

Substance: Flag-GluA2 (from UniProt P19491 22-883) (receptor)
binding (GFP-Spastin R464C (rat)): binds
binding (GFP-Spastin WT (rat)): binds
binding (GFP-Spastin QmD (rat)): binds
binding (GFP-Spastin K353A (rat)): binds

The next lines start with the values.

binding (GST-Spastin WT (rat)): binds
Substance: AMPA receptor subunit GluA3 (from UniProt P19492 23-888)

binding (GST-Spastin WT (rat)): binds
Substance: AMPA receptor subunit GluA4 (from UniProt P19493 21-902)
